PubChem BioAssay AID743121 | NCATS – 2013
This is an unselected part of about 26,000 reagents tested. 167 of them (0.63%) were called active. 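Calls are per gene from RSA p-values that are not deposited; an individual active-marked siRNA can sensitise only weakly.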 Reagents against one gene are numbered here. Further read-outs or replicates are left out here.

Screen: 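Partners whose loss is lethal together with topoisomerase I blockade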 (primary screen)
System: MDA-MB-231 cells, a human breast cancer line
Reagent: single siRNA against human genes, 20 nM siRNA (0.8 pmol per well)
Time to read-out: 120 h (drug added 48 h after transfection, read 72 h later)
Conditions: camptothecin 20 nM (about EC30) for 72 h; vehicle 0.1% DMSO in parallel plates
Detection: 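CellTiter-Glo ATP signal, scaled to control siRNA as percent viability; sensitisation given as log2 of untreated divided by camptothecin-treated viability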
Scale: log2 vehicle/camptothecin viability: higher = stronger sensitisation to camptothecin
Hit rule: 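Active genes have an RSA gene-level p-value below 0.001, computed from the ratios of their separate siRNAs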

gene | reagent no. | log2 vehicle/camptothecin viability | outcome
MAOA | 1 | -0.322 | inactive
MAOA | 2 | 0.0944 | inactive
MAOA | 3 | -0.061 | inactive
MAOA | 4 | -0.115 | inactive
DRD3 | 1 | -0.261 | inactive
DRD3 | 2 | -0.649 | inactive
DRD3 | 3 | 0.14 | inactive
DRD3 | 4 | -0.641 | inactive
NLRP1 | 1 | -0.104 | inactive
NLRP1 | 2 | 0.304 | inactive
NLRP1 | 3 | -0.145 | inactive
NLRP1 | 4 | -0.332 | inactive
IL12RB2 | 1 | -0.27 | inactive
IL12RB2 | 2 | -0.469 | inactive
IL12RB2 | 3 | -0.364 | inactive
IL12RB2 | 4 | -0.181 | inactive
USP6NL | 1 | -0.154 | inactive
USP6NL | 2 | -0.0601 | inactive
USP6NL | 3 | 0.158 | inactive
USP6NL | 4 | -0.118 | inactive
LDHB | 1 | -0.38 | inactive
LDHB | 2 | -0.377 | inactive
LDHB | 3 | -0.209 | inactive
LDHB | 4 | -0.173 | inactive
PPAN | 1 | -0.0691 | inactive
PPAN | 2 | -0.324 | inactive
PPAN | 3 | -0.139 | inactive
PPAN | 4 | -0.216 | inactive
PRKCZ | 1 | 0.0972 | inactive
PRKCZ | 2 | 0.0428 | inactive
PRKCZ | 3 | 0.0262 | inactive
PRKCZ | 4 | 0.00798 | inactive

Continued; the last 4 above are carried over.
gene | reagent no. | log2 vehicle/camptothecin viability | outcome
PRKCZ | 1 | 0.0972 | inactive
PRKCZ | 2 | 0.0428 | inactive
PRKCZ | 3 | 0.0262 | inactive
PRKCZ | 4 | 0.00798 | inactive
THUMPD2 | 1 | -0.438 | inactive
THUMPD2 | 2 | 0.139 | inactive
THUMPD2 | 3 | -0.122 | inactive
THUMPD2 | 4 | 0.368 | inactive
BIRC5 | 1 | -0.375 | inactive
BIRC5 | 2 | 0.128 | inactive
BIRC5 | 3 | 0.0745 | inactive
BIRC5 | 4 | -0.0769 | inactive
SEMA6D | 1 | -0.116 | inactive
SEMA6D | 2 | -0.0655 | inactive
SEMA6D | 3 | -0.0991 | inactive
SEMA6D | 4 | 0.54 | inactive
IRS4 | 1 | 0.023 | inactive
IRS4 | 2 | -0.427 | inactive
IRS4 | 3 | -0.0727 | inactive
IRS4 | 4 | -0.42 | inactive
